# Assay results reported in PubChem BioAssay AID504467 (National Center for Advancing Translational Sciences (NCATS), 2011).
# The whole screen tested about 330,000 compounds, of which about 7,700 (2.3%) were called active. The shares of active, inactive and inconclusive entries below differ from those in the screen. Calls follow the shape of the dose curve; as a rule, active = well fitted inhibition curve with a large enough effect; inconclusive = small, poorly fitted or top-dose-only effect, or effect the other way; inactive = flat fitted curve, though single readings scatter. Potencies of inconclusive entries are doubtful fits and often do not repeat. Residues, ends and D or L forms follow the SMILES beside them. *: point of attachment. Cbz = O=C(OCc1ccccc1)*
# Assay: qHTS screen for small molecules that inhibit ELG1-dependent DNA repair in human embryonic kidney (HEK293T) cells expressing luciferase-tagged ELG1; also: nearly all actives have a fitted effect of over 55% in size
# Details: HEK293T ELG1-luciferase reporter, luminescence, 16 h, DNA damage induced by 5-fluorouridine; series mostly up to 46.1 µM
# Outline: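 DMSO vehicle served as the neutral condition. Each well held 2,000 cells given 5-fluorouridine plus compound; after 16 hr at 37 °C/5% CO2, ONE-Glo was added and luciferase measured 30 min later.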
# Potency is read from the fitted curve at half-maximal effect.
row,Structure (SMILES),Potency
1,Cc1c(C(C)C[C@H](C)O)oc(=O)c2c1Oc1c(C)c(C(C)C[C@H](C)O)oc(=O)c1C2 (some centres not stated),inactive
2,Cc1ccc(COc2ccc(C)nc2[N+](=O)[O-])cc1,"inconclusive: 4.11 µM [activator, full curve]"
3,O=C(c1ccc(N2CN(C(=O)c3ccco3)c3nc4ccccc4nc32)cc1)N1CCOCC1,"inconclusive: 11.6 µM [inhibitor, partial curve]"
4,Cc1cc(Cl)c2oc(C(=O)N3CCCCC3CCN3CCCC3=O)c(C)c2c1 (configuration not stated),"inconclusive: 18.3 µM [activator, single point]"
5,CCc1ccc(OCc2ccc(C(=O)O)o2)cc1,"inconclusive: 0.366 µM [activator, full curve]"
6,COc1ccc(C(CNC(=O)c2oc3ccc(Cl)cc3c2C)N2CCCCC2)cc1 (configuration not stated),inactive
7,COc1ccc(-c2noc(N3CCC(C(=O)Nc4cc(OC)ccc4OC)CC3)n2)cc1,"inconclusive: 25.9 µM [inhibitor, single point]"
8,Cc1c(CNCCc2ccccc2)c(C(=O)O)c(C)n1-c1ccccc1,"inconclusive: 18.3 µM [activator, single point]"
9,Cc1ccc(OCc2ccc(C(=O)O)o2)c([N+](=O)[O-])c1,"inconclusive: 29.1 µM [activator, single point]"
10,COc1ccc(-c2cc(C(F)(F)F)n3nc(C(=O)Nc4cc(C)on4)cc3n2)cc1OC,active: 3.66 µM
11,COc1ccc(-c2nsc(C(=O)N(c3ccc(F)cc3)C(C(=O)NC3CCCC3)c3ccc(OC)cc3)c2N)cc1 (configuration not stated),inactive
12,COc1ccc(OCc2cccc(C(=O)Nc3cc(C)on3)c2)cc1,"inconclusive: 0.517 µM [activator, full curve]"
13,COc1cc(CC(=O)Nc2sc3c(c2C(N)=O)CCCC3)cc(OC)c1OC,"inconclusive: 3.66 µM [inhibitor, full curve]"
14,Cc1nn(-c2ccc(F)cc2)c(Cl)c1/C=N/NC(=O)c1cccs1,"inconclusive: 2.59 µM [activator, full curve]"
15,Cn1c(SCc2cccc(Br)c2)nnc1-c1ccccn1,"inconclusive: 13 µM [activator, partial curve, poor fit]"
16,COc1ccc(-c2cc(C)no2)cc1S(=O)(=O)N1CCOc2ccc(C)cc21,inactive
17,COc1ccc(NC(=O)CN(C)C(=O)CCCc2c[nH]c3ccccc23)cc1,"inconclusive: 0.73 µM [inhibitor, full curve, poor fit]"
18,Clc1ccccc1SCc1nc2ccccc2[nH]1,"inconclusive: 20.6 µM [activator, partial curve]"
19,CC(C)CN(C(=O)c1cc([N+](=O)[O-])cc([N+](=O)[O-])c1)C1CCS(=O)(=O)C1 (configuration not stated),"inconclusive: 5.17 µM [activator, partial curve]"
20,COc1ccc(-c2nn(-c3ccccc3)cc2/C=N/Nc2ccc3ccccc3n2)cc1OC,active: 11.6 µM
21,O=C(c1ccc(S(=O)(=O)N2CCCC2)cc1)N1CCCCCC1,inactive
22,COc1ccc(OC)c(-c2csc(N(Cc3ccco3)C(=O)c3cccs3)n2)c1,"inconclusive: 16.4 µM [inhibitor, partial curve, poor fit]"
23,CCn1c(O)c(N=NC(=O)CNc2ccc(C)cc2)c2ccccc21,inactive
24,O=[N+]([O-])c1cccc(Cl)c1NCCNS(=O)(=O)c1ccccc1,inactive

row,Structure (SMILES),Potency
1,CCOC(=O)Cc1csc(NC(=O)c2ccc(C)c(S(=O)(=O)N3CCOCC3)c2)n1,"inconclusive: 20.6 µM [inhibitor, single point]"
2,O=C(NC1CCCCCCC1)c1cc(COc2ccc3ncccc3c2)on1,active: 1.64 µM
3,CN1C(=O)/C(=C/c2cn(CC(=O)N3CCCCC3)c3ccccc23)c2ccccc21,active: 20.6 µM
4,CCc1nnc(N/N=C/c2c(C)[nH]c3ccccc23)n1N,inactive
5,Cc1ccc([N+](=O)[O-])c(-c2n[nH]c(=S)n2-c2cccc(Cl)c2)c1,inactive
6,O=C(N/N=C/C(Br)=C/c1ccccc1)c1ccccc1F,"inconclusive: 18.3 µM [activator, partial curve]"
7,O=C(O)c1ccc(N/N=C/c2cc(Br)cs2)cc1,"inconclusive: 0.206 µM [activator, full curve, poor fit]"
8,O=C(Nc1cc(=O)c2ccccc2o1)N1CCCCC1,active: 14.6 µM
9,O=C(N/N=C/c1ccccc1)c1ccc2c(c1)OCO2,"inconclusive: 1.46 µM [activator, full curve]"
10,COC(=O)c1nn(Cc2ccccc2)c(=O)c2ccccc12,inactive
11,NNc1ccc(Cl)nn1,"inconclusive: 29.1 µM [activator, single point]"
12,C/C(CC(=O)Nc1ccc(Cl)cc1Cl)=N\NC(=O)c1cnccn1,inactive
13,CCCCN(C(=O)c1ccc(N(C)S(=O)(=O)c2ccc(C)cc2)cc1)c1c(N)n(CCCC)c(=O)[nH]c1=O,inactive
14,CN1c2ccc([N+](=O)[O-])cc2N(C)C1(C)c1ccccc1 (configuration not stated),inactive
15,Cc1sc2nc3ccc(N4CCCCC4)nn3c(=O)c2c1C,"inconclusive: 5.62 µM [activator, single point]"
16,O=C(O)CCc1ccc(-c2cccs2)n1NC(=O)c1ccc(Cl)cc1,inactive
17,CCn1c(-c2ccccn2)nc2cc(S(=O)(=O)N(C)C)ccc21,"inconclusive: 25.9 µM [activator, partial curve]"
18,CN(C)c1ccc(NC(=O)CSc2nc(N)c(C(=O)Nc3ccc(N(C)C)cc3)s2)cc1,inactive
19,CC(NC(=O)CNC(=O)C(Cc1ccccc1)NC(=O)OCc1ccccc1)C(N)=O (stereo not drawn) (Cbz-Phe-Gly-Ala-NH2; configuration not given here),"inconclusive: 2.91 µM [inhibitor, partial curve, poor fit]"
20,Cc1ccc(-c2nc(C)sc2CC(=O)Nc2nnc(C)s2)cc1,inactive
21,O=c1c2ccccc2nc2sc(Nc3ccc(F)cc3)nn12,"inconclusive: 6.51 µM [activator, partial curve]"
22,CCc1nc(-c2cc3ccc(C)cc3[nH]c2=O)no1,"inconclusive: 14.6 µM [activator, partial curve]"
23,COc1ccc(CC(=O)Nc2nn(C)c3nc4c(C)cccc4cc23)cc1,inactive
24,CC1Cc2ccccc2N1S(=O)(=O)c1cccc(C(=O)c2nccn2C)c1 (configuration not stated),"inconclusive: 25.9 µM [inhibitor, partial curve, poor fit]"

row,Structure (SMILES),Potency
1,CCOC(=O)C1=C(C)NC(=O)NC1c1ccc(OCC(=O)Nc2ccccc2)c(OC)c1 (configuration not stated),inactive
2,Cc1nc2ccc(NC(=O)CCC3CCCC3)cc2s1,"inconclusive: 11.6 µM [activator, partial curve]"
3,CC(C)(C)C(=O)/C(=C\c1ccc([N+](=O)[O-])cc1)n1cncn1,active: 11.6 µM
4,Nc1ccc(C(=O)OCCCc2nc3cc4ccccc4cc3[nH]2)cc1,"inconclusive: 1.3 µM [inhibitor, partial curve, poor fit]"
5,CN1N=C(/C=C/c2ccccc2)CCC1=O,"inconclusive: 18.3 µM [activator, partial curve]"
6,CN(CCC#N)C(=S)Nc1ccc(S(=O)(=O)N2CCOCC2)cc1,inactive
7,O=C(O)CC1SC(N/N=C/c2ccc(Br)cc2)NC1=O (configuration not stated),inactive
8,CC1=NN(/C(=N\c2nnc(C)s2)Nc2ccc(C(C)(C)C)cc2)[C@H](c2ccc(C)cc2)S1,"inconclusive: 20.6 µM [inhibitor, single point]"
9,COc1ccc(CN2CCN(Cc3cc(=O)oc4cc(C)ccc34)CC2)c(OC)c1OC,"inconclusive: 20.6 µM [inhibitor, partial curve]"
10,COc1ccc(N(CCN2C(=O)c3ccccc3C2=O)C(=O)c2cccc([N+](=O)[O-])c2)cc1,"inconclusive: 13 µM [inhibitor, partial curve, poor fit]"
11,O=C1/C(=C/c2ccco2)CCC1C1CCCC1 (configuration not stated),"inconclusive: 20.6 µM [activator, single point]"
12,CNC(=O)C(=O)NCC1CCCN1S(=O)(=O)c1cccs1 (configuration not stated),inactive
13,O=C(CSc1nnc2sc3ccccc3n12)c1ccco1,"inconclusive: 14.6 µM [activator, partial curve]"
14,Cc1ccc2oc(-c3ccc(NC(=O)c4ccc5c(c4)OCO5)cc3)nc2c1,"inconclusive: 16.4 µM [activator, single point]"
15,CCCNC(=O)c1cc(Cl)c(NC(=O)C2=C(C)OCCS2)cc1OC,inactive
16,O=C(CCS(=O)(=O)c1ccc(Br)cc1)N1CCN(c2ccc(F)cc2)CC1,inactive
17,CCCc1cc(C(=O)Nc2ccccc2C(=O)OC)no1,"inconclusive: 25.9 µM [activator, single point]"
18,CC(C)(C)c1cc(C(=O)Nc2ccc(F)cc2)n(Cc2ccc(F)cc2)n1,"inconclusive: 23.1 µM [inhibitor, single point]"
19,COC(=O)N/N=C1/C/C(=N\NC(=O)OC)c2ccccc21,"inconclusive: 5.8 µM [inhibitor, full curve]"
20,CN(C)c1ccc(-c2nc3ccccc3c(=O)[nH]2)cc1,"inconclusive: 0.411 µM [activator, full curve]"
21,COc1ccc(NC(=O)c2sccc2C)c([N+](=O)[O-])c1,"inconclusive: 29.1 µM [activator, single point]"
22,Nc1nonc1C(=O)NCCNCc1cc(Br)ccc1OCc1ccc(F)cc1,inactive
23,O=C1NC(=Nc2ccc(Cl)cc2)/C(=C/c2ccco2)S1,inactive
24,CN(C)S(=O)(=O)c1ccc(C(=O)Nc2nnc(-c3ccc4c(c3)CCCC4)o2)cc1,"inconclusive: 20.6 µM [inhibitor, single point]"

# An excerpt from above in order of molar mass, low to high:
row,Structure (SMILES),Potency
15,CCCNC(=O)c1cc(Cl)c(NC(=O)C2=C(C)OCCS2)cc1OC,inactive
24,CN(C)S(=O)(=O)c1ccc(C(=O)Nc2nnc(-c3ccc4c(c3)CCCC4)o2)cc1,"inconclusive: 20.6 µM [inhibitor, single point]"
22,Nc1nonc1C(=O)NCCNCc1cc(Br)ccc1OCc1ccc(F)cc1,inactive

# Exported with bars between the fields: part of the list above.
row | Structure (SMILES) | Potency
5 | CCc1ccc(OCc2ccc(C(=O)O)o2)cc1 | inconclusive: 0.366 µM [activator, full curve]
7 | COc1ccc(-c2noc(N3CCC(C(=O)Nc4cc(OC)ccc4OC)CC3)n2)cc1 | inconclusive: 25.9 µM [inhibitor, single point]
